Measurements taken from paper PMC7979925.
Substitutions are numbered along the chain they refer to. No constants are given. Whether binding was seen depends on the method and setting. Binding seen in cells or lysates may run through a third protein. A result given as binding can be weak or reduced; the word gives no strength. For part of these data: Sequences can lack the tags named with a protein.

Tests used:
Assay in all cases: co-IP; lysates of CHO cells expressing Kv3.3 constructs (25 mM Tris-HCl pH 7.4, 150 mM NaCl, 1% NP-40, 1 mM EDTA, 5% glycerol); primary antibody overnight at 4 °C, protein A/G beads 2 h at 4 °C, six washes; Western blot
[1] = biological target: T1, wild type Kv3.3 potassium channel (UniProt Q14003)
T1 sequence: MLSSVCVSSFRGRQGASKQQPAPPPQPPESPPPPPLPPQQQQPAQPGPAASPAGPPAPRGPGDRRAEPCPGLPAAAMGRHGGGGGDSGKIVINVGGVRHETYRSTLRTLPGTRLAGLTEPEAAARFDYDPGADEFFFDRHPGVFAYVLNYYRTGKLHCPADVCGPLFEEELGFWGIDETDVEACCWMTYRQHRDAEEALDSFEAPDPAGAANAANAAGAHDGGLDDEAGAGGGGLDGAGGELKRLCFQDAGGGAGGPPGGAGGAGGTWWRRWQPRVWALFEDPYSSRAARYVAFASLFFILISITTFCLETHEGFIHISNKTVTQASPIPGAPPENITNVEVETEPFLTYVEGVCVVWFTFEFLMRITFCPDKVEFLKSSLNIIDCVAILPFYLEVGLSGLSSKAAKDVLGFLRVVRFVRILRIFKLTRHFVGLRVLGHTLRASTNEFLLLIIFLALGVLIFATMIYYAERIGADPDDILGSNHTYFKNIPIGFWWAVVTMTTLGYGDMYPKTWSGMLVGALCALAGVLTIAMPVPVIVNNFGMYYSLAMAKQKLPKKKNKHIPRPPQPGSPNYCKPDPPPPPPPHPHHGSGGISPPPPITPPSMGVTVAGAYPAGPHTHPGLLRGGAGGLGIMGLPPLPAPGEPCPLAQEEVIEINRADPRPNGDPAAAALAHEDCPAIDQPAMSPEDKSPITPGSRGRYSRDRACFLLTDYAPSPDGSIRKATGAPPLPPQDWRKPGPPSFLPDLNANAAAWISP

[2] = biological target: T2, Kv3.3 full length with C-terminal 6xHis tag (UniProt Q14003)
T2 sequence: T1 sequence

[3] = biological target: T3, G592R Kv3.3 mutant channel (UniProt Q14003)
T3 sequence: T1 sequence with G592R

- binding [1]: binds
- binding [2]: binds
- binding [3]: binds
Substance: TANK-binding kinase 1 (Chinese hamster (endogenous in CHO)) (enzyme)
